No constants are given. Whether binding was seen depends on the method and setting. Binding seen in cells or lysates may run through a third protein. Some binding calls cover weakened binding; strength is not graded here.
Experiments:
[1] = target: Beclin-1 (human (endogenous in J82 and UMUC3)) (UniProt Q14457); test: co-IP; endogenous proteins in J82 and UMUC3 lysates; IP Lysis Buffer with protease inhibitors, specific antibody or control IgG overnight at 4 °C, protein A/G magnetic beads, Western blot; for Beclin-1 with Bcl-2, VPS34, ATG14L and UVRAG the cells were with or without Gem (0.4 μM J82, 0.6 μM UMUC3) and TPI1 knock-down
Flag-TPI1 [2] = target: Flag-TPI1 (UniProt P60174); test: co-IP; co-IP of TPI1 with truncated forms of Beclin-1 (NT 1-172, CT 173-450); cells and tags not stated
[3] = target: Triosephosphate isomerase 1 (TPI1) (human (endogenous in J82 and UMUC3)) (UniProt P60174); test: co-IP; endogenous proteins in J82 and UMUC3 lysates; IP Lysis Buffer with protease inhibitors, specific antibody or control IgG overnight at 4 °C, protein A/G magnetic beads, Western blot; for Beclin-1 with Bcl-2, VPS34, ATG14L and UVRAG the cells were with or without Gem (0.4 μM J82, 0.6 μM UMUC3) and TPI1 knock-down
Flag-TPI1 [4] = target: Flag-TPI1 (UniProt P60174); test: co-IP; exogenous co-IP in cells transfected with TPI1 and Beclin-1 expression plasmids; cells not given
MYC-Bcl2 = MYC-Bcl2 (UniProt P10415); test: co-IP; exogenous co-IP in 293 T cells with HA-Beclin-1, MYC-Bcl2 and Flag-TPI1, each of the latter two with or without the other; HA-Beclin-1 band detected
Flag-TPI1 [5] = target: Flag-TPI1 (UniProt P60174); test: as above

Sequences of proteins named here, by UniProt entry; tags and fusion partners are left off.
UniProt P60174: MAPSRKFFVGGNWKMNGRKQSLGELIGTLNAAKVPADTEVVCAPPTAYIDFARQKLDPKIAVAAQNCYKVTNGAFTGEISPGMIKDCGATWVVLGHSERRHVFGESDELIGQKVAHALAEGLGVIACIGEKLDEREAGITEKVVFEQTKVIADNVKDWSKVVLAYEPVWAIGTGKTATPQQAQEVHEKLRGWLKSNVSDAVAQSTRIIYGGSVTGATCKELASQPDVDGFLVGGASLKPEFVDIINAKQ
UniProt P10415: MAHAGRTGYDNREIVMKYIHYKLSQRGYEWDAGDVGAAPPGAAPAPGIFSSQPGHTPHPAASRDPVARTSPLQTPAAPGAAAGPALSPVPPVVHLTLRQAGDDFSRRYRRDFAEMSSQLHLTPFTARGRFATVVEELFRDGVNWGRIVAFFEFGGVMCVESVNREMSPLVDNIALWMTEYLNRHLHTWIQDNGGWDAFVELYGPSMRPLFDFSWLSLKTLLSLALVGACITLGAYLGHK

In the case of Bcl-2 (from UniProt P10415 1-239), the binding [1] is reported as “binds”.

With “Beclin-1-NT (1-172) (from UniProt Q14457 1-172) (domain or fragment)” the binding (Flag-TPI1 [2]) was “binds”.

Beclin-1 (from UniProt Q14457 1-450) was tested, and the binding [3] was “binds”.

HA-Beclin-1 (from UniProt Q14457 1-450) was tested, and the binding (Flag-TPI1 [4]) was “binds”, the binding (MYC-Bcl2) was “binds” and the binding (Flag-TPI1 [5]) was “binds”.
